Measured values taken from paper PMC11914233.
No constants are given. Whether binding was seen depends on the method and setting. Binding seen in cells or lysates may run through a third protein. A result given as binding can be weak or reduced; the word gives no strength. Tags and fused reporters may be left off the sequences shown.

The chains behind the UniProt entries cited, without tags or fusion partners. Where a name states a change or a piece, a line headed by the entry shows the natural chain unless it says otherwise.
UniProt Q9D8T2: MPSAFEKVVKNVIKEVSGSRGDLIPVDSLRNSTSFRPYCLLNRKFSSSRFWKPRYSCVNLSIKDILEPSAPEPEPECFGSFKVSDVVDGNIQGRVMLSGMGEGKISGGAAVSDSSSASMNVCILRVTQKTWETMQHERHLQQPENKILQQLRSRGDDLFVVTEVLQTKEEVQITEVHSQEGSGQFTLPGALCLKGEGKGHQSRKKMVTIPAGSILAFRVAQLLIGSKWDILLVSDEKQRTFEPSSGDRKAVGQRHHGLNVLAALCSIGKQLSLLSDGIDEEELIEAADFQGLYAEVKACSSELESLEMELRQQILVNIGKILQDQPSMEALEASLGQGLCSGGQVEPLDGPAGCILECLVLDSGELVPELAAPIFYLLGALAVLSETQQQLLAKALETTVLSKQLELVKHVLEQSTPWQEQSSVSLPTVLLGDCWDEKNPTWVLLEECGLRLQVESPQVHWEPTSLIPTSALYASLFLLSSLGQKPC

Molecular target: Flag-tagged gasdermin D N-terminal domain (mouse) (mouse) (UniProt Q9D8T2)
Assay: co-IP; lysates of co-transfected cells in EBC buffer (50 mM Tris pH 7.5, 120 mM NaCl, 0.5% NP-40); anti-Flag or anti-HA agarose beads, 4 h at 4 °C; immunoblot

B1: HA-TRAF1 (human) (enzyme, UniProt Q13077 1-416)
chain: MASSSGSSPRPAPDENEFPFGCPPTVCQDPKEPRALCCAGCLSENPRNGEDQICPKCRGEDLQSISPGSRLRTQEKAHPEVAEAGIGCPFAGVGCSFKGSPQSVQEHEVTSQTSHLNLLLGFMKQWKARLGCGLESGPMALEQNLSDLQLQAAVEVAGDLEVDCYRAPCSESQEELALQHFMKEKLLAELEGKLRVFENIVAVLNKEVEASHLALATSIHQSQLDRERILSLEQRVVELQQTLAQKDQALGKLEQSLRLMEEASFDGTFLWKITNVTRRCHESACGRTVSLFSPAFYTAKYGYKLCLRLYLNGDGTGKRTHLSLFIVIMRGEYDALLPWPFRNKVTFMLLDQNNREHAIDAFRPDLSSASFQRPQSETNVASGCPLFFPLSKLQSPKHAYVKDDTMFLKCIVETST
  binding: binds
